Measured values: publication PMC4299599, “Quantification of cytosolic interactions identifies Ede1 oligomers as key organizers of endocytosis” (Molecular Systems Biology, 2014)
These are yes or no findings as the source states them, for the method shown. Some binding calls cover weakened binding; strength is not graded here. Blank lines part the entries; values can stand above or below the binder they belong to.

Columns and labels:
Pan1 [1] = biological target: T1, Pan1 (S. cerevisiae, UniProt P32521 1-1480); test: condition: detection range of FCCS: apparent KD up to ~1 μM; fluorescence cross-correlation spectroscopy (FCCS); self-interaction: living diploid yeast cells with one allele fused to (3)myeGFP and one to (3)mCherry, cytoplasm; apparent (effective) KD, to be taken as the upper limit since complexes of one colour are not seen
T1 construct: Pan1, S. cerevisiae; also called Pan1-1myeGFP; Pan1-3mCherry; source: chromosomally tagged at the endogenous locus, in the cytoplasm of living S. cerevisiae cells
T1 sequence (looked up): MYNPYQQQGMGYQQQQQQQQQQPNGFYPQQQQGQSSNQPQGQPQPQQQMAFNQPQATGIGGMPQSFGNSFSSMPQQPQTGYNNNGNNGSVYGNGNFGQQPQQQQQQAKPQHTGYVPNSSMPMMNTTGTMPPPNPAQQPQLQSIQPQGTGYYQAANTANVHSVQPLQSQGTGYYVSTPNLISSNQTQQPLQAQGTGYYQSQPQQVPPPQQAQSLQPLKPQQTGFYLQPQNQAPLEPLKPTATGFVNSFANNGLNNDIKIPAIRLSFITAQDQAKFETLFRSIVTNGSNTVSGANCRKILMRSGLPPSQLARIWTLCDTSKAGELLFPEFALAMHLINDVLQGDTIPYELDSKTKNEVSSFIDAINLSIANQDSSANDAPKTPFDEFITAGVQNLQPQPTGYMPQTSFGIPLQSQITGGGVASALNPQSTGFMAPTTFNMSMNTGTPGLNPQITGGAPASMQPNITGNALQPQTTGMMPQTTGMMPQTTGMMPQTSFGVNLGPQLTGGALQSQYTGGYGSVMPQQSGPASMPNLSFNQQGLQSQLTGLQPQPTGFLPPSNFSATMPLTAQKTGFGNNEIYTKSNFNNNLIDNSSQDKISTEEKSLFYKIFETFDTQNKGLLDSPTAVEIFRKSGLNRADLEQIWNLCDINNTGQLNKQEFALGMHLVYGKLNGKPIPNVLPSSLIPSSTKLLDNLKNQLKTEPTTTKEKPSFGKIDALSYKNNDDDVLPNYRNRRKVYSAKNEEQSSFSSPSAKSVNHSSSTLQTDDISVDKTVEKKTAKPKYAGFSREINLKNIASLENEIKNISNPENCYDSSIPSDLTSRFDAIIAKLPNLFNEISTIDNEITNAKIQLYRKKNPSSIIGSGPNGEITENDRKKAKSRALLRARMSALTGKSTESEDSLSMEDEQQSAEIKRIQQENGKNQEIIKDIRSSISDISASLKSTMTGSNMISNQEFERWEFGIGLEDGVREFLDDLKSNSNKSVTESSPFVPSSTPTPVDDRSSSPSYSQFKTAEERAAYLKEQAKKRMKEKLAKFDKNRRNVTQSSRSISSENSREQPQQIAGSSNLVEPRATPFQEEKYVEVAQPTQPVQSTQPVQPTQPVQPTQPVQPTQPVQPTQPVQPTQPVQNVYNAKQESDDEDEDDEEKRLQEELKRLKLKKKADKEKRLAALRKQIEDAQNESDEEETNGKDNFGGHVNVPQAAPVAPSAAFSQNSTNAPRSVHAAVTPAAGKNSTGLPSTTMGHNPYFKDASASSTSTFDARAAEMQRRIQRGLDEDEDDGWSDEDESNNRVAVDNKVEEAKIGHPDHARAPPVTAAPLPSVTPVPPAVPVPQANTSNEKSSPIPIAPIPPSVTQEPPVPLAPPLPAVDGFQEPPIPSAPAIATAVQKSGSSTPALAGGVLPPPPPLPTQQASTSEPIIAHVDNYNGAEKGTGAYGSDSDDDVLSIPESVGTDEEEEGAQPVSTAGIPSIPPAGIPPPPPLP

Pan1 [2] = biological target: T1, Pan1; test: condition: 1000 nM (only Kdeff-values < 1000 nM are shown); fluorescence cross-correlation spectroscopy (FCCS); in the cytoplasm of living yeast cells; first-named protein green (3myeGFP or 1myeGFP; eGFP for Don1), second red (3mCherry); self-interaction in diploid strains with one allele of each colour; apparent or effective KD (Kdeff) from single-cell measurements; only Kdeff values < 1000 nM are shown; values for self-interactions are upper limits
Ent1 (S. cerevisiae) = biological target: T2, Ent1 (S. cerevisiae) (UniProt Q12518); test: as above
T2 sequence: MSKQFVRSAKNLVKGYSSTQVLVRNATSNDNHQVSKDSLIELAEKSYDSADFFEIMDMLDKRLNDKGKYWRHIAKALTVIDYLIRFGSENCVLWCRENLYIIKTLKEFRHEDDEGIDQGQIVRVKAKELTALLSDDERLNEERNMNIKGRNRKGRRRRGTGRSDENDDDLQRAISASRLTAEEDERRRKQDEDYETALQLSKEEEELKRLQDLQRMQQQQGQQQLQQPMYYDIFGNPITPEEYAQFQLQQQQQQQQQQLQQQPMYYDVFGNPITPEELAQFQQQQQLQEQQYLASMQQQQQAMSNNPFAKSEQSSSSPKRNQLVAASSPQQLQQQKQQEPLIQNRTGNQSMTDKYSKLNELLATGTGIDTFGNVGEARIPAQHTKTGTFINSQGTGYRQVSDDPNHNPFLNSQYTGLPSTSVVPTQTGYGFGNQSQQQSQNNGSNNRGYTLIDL

End3 (S. cerevisiae) = biological target: T3, End3 (S. cerevisiae) (UniProt P39013); test: fluorescence cross-correlation spectroscopy (FCCS); living yeast cells, observation volume in the cytoplasm; one protein tagged with (3)myeGFP/eGFP and the other with 3mCherry in the same strain; apparent (effective) KD; interactions up to ~1 μM detectable
T3 sequence: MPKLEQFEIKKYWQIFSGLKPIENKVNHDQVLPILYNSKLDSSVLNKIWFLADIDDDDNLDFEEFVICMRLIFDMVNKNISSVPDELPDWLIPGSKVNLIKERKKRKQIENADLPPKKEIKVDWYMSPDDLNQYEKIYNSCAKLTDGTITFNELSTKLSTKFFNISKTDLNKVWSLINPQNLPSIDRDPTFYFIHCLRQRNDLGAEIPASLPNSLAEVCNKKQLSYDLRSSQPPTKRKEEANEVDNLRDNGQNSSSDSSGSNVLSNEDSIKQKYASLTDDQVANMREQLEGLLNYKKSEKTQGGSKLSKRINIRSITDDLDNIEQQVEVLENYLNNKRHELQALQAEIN

- binding (Pan1 [1]): no binding
- binding (Pan1 [2]): no binding
- binding (Ent1 (S. cerevisiae)): no binding
- binding (End3 (S. cerevisiae)): binds
B1: Pan1 (protein, UniProt P32521 1-1480)
chain: T1 sequence (looked up)

- binding (Pan1 [2]): no binding
B2: Scd5 (protein, UniProt P34758 1-872)
chain: MSFDWLNVPGLDLSSGDQAEKRPSNGLGPPSVSFDFGINTAAPHDSSFWDQGSRSHSDTTLSYRNNHSNTAADNATNVSSPQKDNPPNGEVRTLSGGDVYAESPEDMQVPLSLSQNQLTHEEIRTYLRWYHYICLRTHGKLVRLNDVFRFLTNFNLSQKVKDRIVEIFRSCKNALNIGQFFAVLRLVSRAIIYGILPLRRMILEKAPVPKPRPILSSENHEEVYEEVEDDDSSAKTGDQKVDFDSFASLLLTGKTTRKRVRRRIKNLNFKSKKVRFSEHITFQDPPNLNQESSNNSEARKQDPDAEDEDQDSNNDSPLDFTLPMDQLLKRLYKRRKNSGLVSSLPSEQQETEEEKKVLEDMKDSLSHFKQIQTVDSASLPISSVFLQNGNTLPTSNVNNTTVPQQLPLEPLKPTATGSANHLVREEYNQGLHPSNGAIQTGLQPLKPTATGSANYLMRSHMEQPQSIKPSSTPETVTNSGGLQPLKPTATGSANYLMKQHISPSVNNPVSSMFQAQFTNQSSSPQSTGPAFLNSPNITLPQSNQQQPYQEVNPTQAKIEPSNISPQHTYSNNVRINNGNIVSMPKVEITGAFPPQNTLPQHQQSHLLSPQNTIPQHQRSQLISPQNTFTQNQPILSPQHTYSNNQATMISPQNTYTNNQQQPQHLPPPPPPRAQQQQQGAIVPPQHMYSNVQKQNNLVPTQPSYTNSPSIQSPNFLSPQNAANSYFQSLLSSSPSPNPTPSNASTVNGNNASNGISSFQNTSAAMNNTQSHQTYIQQQQQQQTQQRIYGGQLSQMQQHPGQLHLNNSDIHSQPNKPNYGMLGQQVHQQQQQQQQQFPFTADVNRSNSSDILGNLQSLQQQVDALQIQYNRRP
